The record followed here is article PMC7819943, “Rice protein-binding microarrays: a tool to detect cis-acting elements near promoter regions in rice”.

This is one part of the list.

This experiment has as its target T1, OsSMF1 (Oryza sativa, UniProt Q6ZLB0 1-436).
T1 sequence: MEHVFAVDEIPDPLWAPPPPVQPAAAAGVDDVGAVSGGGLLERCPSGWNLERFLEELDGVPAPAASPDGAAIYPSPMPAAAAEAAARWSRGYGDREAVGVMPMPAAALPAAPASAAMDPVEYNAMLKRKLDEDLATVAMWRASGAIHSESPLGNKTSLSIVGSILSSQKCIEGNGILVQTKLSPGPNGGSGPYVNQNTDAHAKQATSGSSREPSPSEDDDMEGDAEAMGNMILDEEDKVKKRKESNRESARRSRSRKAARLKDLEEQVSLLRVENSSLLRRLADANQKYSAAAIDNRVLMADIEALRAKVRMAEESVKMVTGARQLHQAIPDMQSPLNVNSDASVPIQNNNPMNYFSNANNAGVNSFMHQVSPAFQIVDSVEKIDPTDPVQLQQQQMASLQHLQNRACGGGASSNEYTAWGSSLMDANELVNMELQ
As to the kind of experiment: protein-binding microarray (RPBM); PBS, 2% BSA, 51.3 ng/ul salmon testes DNA, 50 uM zinc acetate, 200 nM TF, 25 C, 1 h; high values mean tight binding. The following applies: protein: recombinant; tags: N-terminal polyhistidine and DsRed monomer fusion (pET32a); chain copies: 2; label: CyDye5-dUTP incorporated in the synthesized complementary strand; 3' TTTTT single-stranded linker to array surface; dsDNA, one strand shown. In short, it runs like this:
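Polyhistidine-tagged DsRed fusions of transcription factors, joined at the N-terminus, were expressed in E. coli BL21-CodonPlus and isolated on Ni–NTA. They were incubated at 200 nM for 1 h at 25 °C on a custom Agilent array, double-stranded and BSA-blocked, in PBS with 2% BSA, salmon testes DNA and 50 µM zinc acetate. The binding signal is per-feature fluorescence intensity (arbitrary units) read on an Axon 4000B scanner after washing.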
As for “CATGACACATCAGCGCCGCGCTGCCACATAGGATCTCGCTCGGAGTCACCTAGTGCAG”, the binding signal was 14000 fluorescence intensity (a.u.).
For “GGCGCTGGTATTGATGCGTCATTTTCATCTATTTGCATTTCGGAGTCACCTAGTGCAG”, the binding signal is 6020 fluorescence intensity (a.u.).
The result for “GGTGGAGGACCCGCAGCCGCTGGCGATGGCGTGGATGATGCGGAGTCACCTAGTGCAG” reads 20700 fluorescence intensity (a.u.).
The result for “GCCTCCCAGTTCGACAGGTTCATGGACCACGTGTTGCATCCGGAGTCACCTAGTGCAG” reads 5550 fluorescence intensity (a.u.).
As to “TAGAAGTTTCTGAACATGTGTCTGATTATCCTATGCCTGCCGGAGTCACCTAGTGCAG”, the binding signal was 3280 fluorescence intensity (a.u.).
The result for “ATCGAGGTCCCCTGCCCGCACACTTCGCGTCAGCTGCTGCCGGAGTCACCTAGTGCAG” reads 3590 fluorescence intensity (a.u.).
Then “TTGTAGTCGGATCGCCAACGTCACTCCATCCAATCGACTTCGGAGTCACCTAGTGCAG”, with 5780 fluorescence intensity (a.u.); and “GGCCCAACACACATGGGCCTCAAGTAAGTGGCAATTCCGTCGGAGTCACCTAGTGCAG”, with 3240 fluorescence intensity (a.u.); and “CTATATATACATACCGTGGCCATGGCAGTACGTAAGGCACCGGAGTCACCTAGTGCAG”, with 3260 fluorescence intensity (a.u.).
Then “CCGCATGCTCCAGGACCAGTTCAACGTCAGCATGAACCACCGGAGTCACCTAGTGCAG”, with 4970 fluorescence intensity (a.u.).
As for “AAAACCCTAGACACCTCCTAGTCATCAATGCCTATGTAGTCGGAGTCACCTAGTGCAG”, the binding signal was 30500 fluorescence intensity (a.u.).
The result for “GGACAAGTGGTGAAGGAGATATCGAGTCGGCGTCATGGCCCGGAGTCACCTAGTGCAG” reads 4300 fluorescence intensity (a.u.); that for “AAAATCCATTAAAAGGAAAACCTTTGAAAGTCTAATATTTCGGAGTCACCTAGTGCAG”, 3540 fluorescence intensity (a.u.).
The result for “ATGCATGCAGATGACGATCATGACATTGCGTGTTTGAATCCGGAGTCACCTAGTGCAG” reads 3810 fluorescence intensity (a.u.).
On to “TCCAAATTAGCGTCCAAACATCCGATGTGACATGGGCTAACGGAGTCACCTAGTGCAG”, for which the binding signal was 3500 fluorescence intensity (a.u.).
Then “AAAACGCCACGTGGTGGTTTAGGAGCGTTTATAGTAAGACCGGAGTCACCTAGTGCAG”, with 23100 fluorescence intensity (a.u.); and “AGGTCGATGGCGTCGCGTGGCTCATCCGCCGCTACCAACTCGGAGTCACCTAGTGCAG”, with 3280 fluorescence intensity (a.u.); and “AAATACCGTAGTTTTCATCACGTCAGGTACGTGGTAGGTTCGGAGTCACCTAGTGCAG”, with 3340 fluorescence intensity (a.u.).
Then “ACCGGAGCACCGCCGATTCAAACCTGGCCTCGCCGGCGCCCGGAGTCACCTAGTGCAG”, with 3160 fluorescence intensity (a.u.); and “GAATGTGTCTTGTGTGGAATATTTTCTTTCCTTCGCTGAGCGGAGTCACCTAGTGCAG”, with 3460 fluorescence intensity (a.u.).
The result for “ACAAACATGATAAGGCTGCTATTCGTTGGAAACCGTAATCCGGAGTCACCTAGTGCAG” reads 3290 fluorescence intensity (a.u.); that for “AATATACTACAATACCACCGTACCACGTATCAAAACAAATCGGAGTCACCTAGTGCAG”, 3500 fluorescence intensity (a.u.).
For “GTCCCAGAATCAGCCGCATACGTAGGCGGGCCCCGCAAGTCGGAGTCACCTAGTGCAG”, the binding signal is 4040 fluorescence intensity (a.u.).
The result for “TATCTTAGGCCTCCTCCAACAAGGATGAGTCAGCTAGCTCCGGAGTCACCTAGTGCAG” reads 13100 fluorescence intensity (a.u.); that for “AAGTCCGCAAGGGCCGCGCGCACGTGGGCGCGGTGCGGGTCGGAGTCACCTAGTGCAG”, 3910 fluorescence intensity (a.u.).
Then “AACCGTCGACACGCGCGCGACCATTCGATCACTCCACGACCGGAGTCACCTAGTGCAG”, with 3730 fluorescence intensity (a.u.); and “ACAACTTACAACTTGTCCTCCAGGGCAAACTTTAGTCGCCCGGAGTCACCTAGTGCAG”, with 24300 fluorescence intensity (a.u.); and “TACAACTATACTGAGTATTGTCTAGTCAGTGTTCCCTTAACGGAGTCACCTAGTGCAG”, with 4290 fluorescence intensity (a.u.).
“TCATAATATATATATATATATATATATATAGACTGCGTGTCGGAGTCACCTAGTGCAG”: the binding signal is 5140 fluorescence intensity (a.u.).
On to “GGTGTCACGTAAGCGCCACGTCAGCGAACCGCCCTCCAAACGGAGTCACCTAGTGCAG”, for which the binding signal was 26600 fluorescence intensity (a.u.).
Then “GTTTTGCATTCTTTTGTTCATGACTGTGATGTACACTTGTCGGAGTCACCTAGTGCAG”, with 3290 fluorescence intensity (a.u.); and “GCCGTTGTCCGAAGGTTCAGCATATTGCTGACATATTGCCCGGAGTCACCTAGTGCAG”, with 4940 fluorescence intensity (a.u.).
Then “GCCGGTGATCATGGCCCAAGTCAATCGTCACAAGCTCCACCGGAGTCACCTAGTGCAG”, with 3740 fluorescence intensity (a.u.); and “ACTGTAAATTGCGAGACGAATCTTTTGAGCCTAATTATGCCGGAGTCACCTAGTGCAG”, with 27400 fluorescence intensity (a.u.).
The result for “GCCGACCTCCCACCCCAGGCGATGGCATCCAGATCAGCTCCGGAGTCACCTAGTGCAG” reads 14800 fluorescence intensity (a.u.).
As to “TAGGCCGGTGTGCGCGACGGTGCTGACGCGTAAGAAGTGCCGGAGTCACCTAGTGCAG”, the binding signal is 7160 fluorescence intensity (a.u.).
The result for “CCGAATTTGTAGCCTTACAATCAGCCAAGTCAGCACCCGCCGGAGTCACCTAGTGCAG” reads 10400 fluorescence intensity (a.u.).
Then “CACGTGGGTCCCACGCTGATTGGGCTGCCACGTCAGACAACGGAGTCACCTAGTGCAG”, with 24600 fluorescence intensity (a.u.).
Then “AGTGGCGTAGGTGGCATCAACCTAGCGGTGGAGGCGGTATCGGAGTCACCTAGTGCAG”, with 3680 fluorescence intensity (a.u.).
Regarding “ATACGTGCCAAATCAGAGAAAACTGGGCCCACGTGTGAACCGGAGTCACCTAGTGCAG”, the binding signal was 6420 fluorescence intensity (a.u.).
Regarding “TCTTATCTGCTTCTTTCTTTAGCTTGCTAGCTACTAGTACCGGAGTCACCTAGTGCAG”, the binding signal is 16800 fluorescence intensity (a.u.).
Turning to “CTCCCATCGTCATCCCACGATCACCGATTCACTCTCCTAGCGGAGTCACCTAGTGCAG”, the binding signal was 3300 fluorescence intensity (a.u.).
